Assay results as given in US9296755B2, “3,4-dihydro-1H-pyrimido[1,6-a]pyrimidin-6(2H)-one compounds and their therapeutic applications” (GlaxoSmithKline Intellectual Property Development Limited, priority 2013, dated 2016).
Some of these results come from one statement about several compounds together.

Legend:
[1] = target: T1, recombinant human Lp-PLA2 (Homo sapiens, UniProt Q13093); assay: Recombinant human Lp-PLA2 assay (rhLp-PLA2, PED6 assay); type: biochemical; details: recombinant human Lp-PLA2, PED6 substrate
T1 sequence (Q13093 22-441): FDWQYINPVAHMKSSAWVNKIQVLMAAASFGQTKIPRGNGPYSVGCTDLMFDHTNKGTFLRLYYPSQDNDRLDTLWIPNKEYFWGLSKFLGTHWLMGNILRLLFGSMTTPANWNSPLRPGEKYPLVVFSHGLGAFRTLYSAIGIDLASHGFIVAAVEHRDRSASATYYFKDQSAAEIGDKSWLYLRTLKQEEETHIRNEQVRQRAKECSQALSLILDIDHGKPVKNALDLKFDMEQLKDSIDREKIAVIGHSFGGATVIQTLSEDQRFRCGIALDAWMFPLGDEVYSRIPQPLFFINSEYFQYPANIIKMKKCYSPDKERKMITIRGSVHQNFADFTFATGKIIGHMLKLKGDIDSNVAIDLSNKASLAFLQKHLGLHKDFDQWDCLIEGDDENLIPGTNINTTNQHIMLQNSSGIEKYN
From the text: (1) Recombinant Human Lp-PLA2 Assay (rhLp-PLA2) (Also Referred to as “PED6” Assay)
N-((6-(2,4-dinitrophenyl)amino)-hexanoyl)-2-(4,4-difluoro-5,7-dimethyl-4-bora-3a,4a-diaza-s-indacene-3-pentanoyl)-1-hexadecanoyl-sn-glycero-3-phosphoethanolamine, triethylammonium salt (PED6) is a commercially available fluorescently-labeled phospholipid, which is commercially available from Invitrogene and Molecular Probes. There is a quenching […] and a Bodipy fluorescein (FL) group in the sn2 position. Upon cleavage with Lp-PLA2, the Bodipy FL group is liberated and then may result in an increase in fluorescence. Inhibitors of Lp-PLA2 therefore prevent this cleavage and no fluorescent increase is observed.
The PED6 assay was run as an unquenched 10 μL assay. The source plate containing the compounds to be tested was prepared by making 1:3 (by volume) serial dilution of the compounds within DMSO on 384-well microplate. Then, 0.01 μL of the compounds on compound source plate were transferred into 384 well Greiner 784076 (black) plates using ECHO liquid dispenser. 5 μL of recombinant human Lp-PLA2 enzyme (4 nM (or 110 pM) rhLp-PLA2 in assay buffer of 50 mM HEPES, pH 7.4, 150 mM NaCl, 1 mM CHAPS) was added to each well of the plate. Plates were centrifuged for 10 sec at 500 rpm. After 30 minutes preincubation, 5 μL of substrate (4 μM (or 5 μM) PED6 [from 5 mM DMSO stock] in assay buffer of 50 mM HEPES, pH 7.4, 150 mM NaCl, 1 mM CHAPS) was added to 384 well Greiner 784076 (black) plates. Plates were centrifuged for 10 sec at 500 rpm. The plate was covered to protect it from light and incubated for 20 min at room temperature. The plates were read for fluorescence intensity at ex: 480/em: 540 using ViewLux microplate imager for Envision spectrofluroimeters. PIC50 data, curve and QC analysis was conducted by using XL fit module in Excel.

[2] = target: T2, Lp-PLA2 in human plasma (Homo sapiens, UniProt Q13093); assay: Lp-PLA2 human plasma assay (Thio-PAF assay); type: biochemical; details: pooled human plasma
T2 construct: from tissue; host or cells: pooled human plasma
T2 sequence (Q13093 22-441): T1 sequence (Q13093 22-441)
From the text: (3) Lipoprotein-Associated Phospholipase A2 (Lp-PLA2) Human Plasma Assay (Also Referred to as “Thio-PAF Assay”)
The human plasma assay utilizes a thioester analog of PAF (phosphatidylcholine), where hydrolysis yields to the formation of a phospholipid containing a free thiol group. The amount of thiol is quantitated continuously by reacting with CPM (7-diethylamino-3-(4′-maleimidylphenyl)-4-methylcoumarin), a maleimide which increases in fluoresence after Michael addition of thiols. This assay may detect the activity of Lp-PLA2 in human plasma, as determined by specific inhibition by Lp-PLA2 inhibitors.
The thio-PAF assay was run as a quenched 15 μL assay. Compounds source plate was prepared by making 1:3 (by volume) serial dilution of the compounds into pure DMSO on 384-well microplate. 0.01 μL of compounds on compound source plate were transferred to 384 well Greiner 784076 (black) low-volume plates by ECHO liquid dispenser. 8 μL pooled human plasma, which was previously aliquoted and frozen, was added. Plates were centrifuged for 10 sec at 500 rpm. After 30 minutes preincubation, 2 μL of substrate solution comprising 2.5 mM 2-thio-PAF [from ethanol stock], 32 μM CPM [from a DMSO stock] and 3.2 mM NEM (N-ethylmaleimide) [made fresh daily in DMSO] in assay buffer of 50 mM HEPES, pH 7.4, 150 mM NaCl, 1 mM CHAPS was added to 384 well Greiner 784076 (black) low-volume plates by BRAVO liquid handling station. After 2 mins, reaction was quenched with 5 μL of 5% aqueous trifluoroacetic acid (TFA). Plates were covered to protect from light and incubated for 40 min at room temperature. Plates were read at ex: 380/em: 485 using Envision microplate reader. PIC50 data, curve and QC analysis were conducted by using XLFit module in Excel.

rhLp-PLA2 (PED6 assay) (pIC50) [1]	pIC50 in the thio-PAF assay [2]	Compound
at least 8.0	at least 6.0	O=C(CN1CCCn2c1cc(OCc1ccc(F)c(F)c1)nc2=O)N1CCCCC1 [Example E21, 8-((3,4-difluorobenzyl)oxy)-1-(2-oxo-2-(piperidin-1-yl)ethyl)-3,4-dihydro-H-pyrimido[1,6-a]pyrimidin-6(2H)-one]
at least 8.0	at least 6.0	O=C(CN1CCCn2c1cc(OCc1ccc(F)c(F)c1)nc2=O)N1CCOCC1 [Example E22, 8-((3,4-difluorobenzyl)oxy)-1-(2-morpholino-2-oxoethyl)-3,4-dihydro-H-pyrimido[1,6-a]pyrimidin-6(2H)-one]
at least 8.0	at least 6.0	O=C(CN1CCCn2c1cc(OCc1ccc(F)c(F)c1)nc2=O)N1CCC(F)CC1 [Example E23, 8-((3,4-difluorobenzyl)oxy)-1-(2-(4-fluoropiperidin-1-yl)-2-oxoethyl)-3,4-dihydro-1H-pyrimido[1,6-a]pyrimidin-6(2H)-one]
at least 8.0	at least 6.0	CCCNC(=O)CN1CCCn2c1cc(OCc1cc(F)c(F)c(F)c1)nc2=O [Example E24, 2-(6-oxo-8-((3,4,5-trifluorobenzyl)oxy)-2,3,4,6-tetrahydro-1H-pyrimido[1,6-a]pyrimidin-1-yl)-N-propylacetamide]
